Assay [1] addresses WIND1 fused with the N terminus of YFP (nYFP), BiFC construct (Arabidopsis thaliana). Description: split reporter.
Assay [2] has as its target WIND1 N-terminal region (N; 1st to 151st amino acids), yeast two-hybrid bait (Arabidopsis thaliana). Description: two-hybrid.

No constants are given. Whether binding was seen depends on the method and setting. Binding calls can cover weak binding; strength is not graded here. Where a sequence is shown, tags or fusion partners need not be part of it. For some assays here: Binding seen in cells or lysates may run through a third protein.

B1: ADA2a fused with the C terminus of YFP (cYFP), BiFC construct (protein, UniProt Q9SFD5 1-548)
chain: MGRSKLASRPAEEDLNPGKSKRKKISLGPENAAASISTGIEAGNERKPGLYCCNYCDKDLSGLVRFKCAVCMDFDLCVECFSVGVELNRHKNSHPYRVMDNLSFSLVTSDWNADEEILLLEAIATYGFGNWKEVADHVGSKTTTECIKHFNSAYMQSPCFPLPDLSHTIGKSKDELLAMSKDSAVKTEIPAFVRLSPKEELPVSAEIKHEASGKVNEIDPPLSALAGVKKKGNVPQAKDIIKLEAAKQQSDRSVGEKKLRLPGEKVPLVTELYGYNLKREEFEIEHDNDAEQLLADMEFKDSDTDAEREQKLQVLRIYSKRLDERKRRKEFVLERNLLYPDQYEMSLSAEERKIYKSCKVFARFQSKEEHKELIKKVIEEHQILRRIEDLQEARTAGCRTTSDANRFIEEKRKKEAEESMLLRLNHGAPGSIAGKTLKSPRGLPRNLHPFGSDSLPKVTPPRIYSGLDTWDVDGLLGADLLSETEKKMCNETRILPVHYLKMLDILTREIKKGQIKKKSDAYSFFKVEPSKVDRVYDMLVHKGIGDST
With B1, the binding entry in assay [1] is listed as “binds”.

B2: HOMOLOG OF YEAST ADA2 2a (ADA2a), yeast two-hybrid fusion (protein, UniProt Q9SFD5 1-548)
chain: MGRSKLASRPAEEDLNPGKSKRKKISLGPENAAASISTGIEAGNERKPGLYCCNYCDKDLSGLVRFKCAVCMDFDLCVECFSVGVELNRHKNSHPYRVMDNLSFSLVTSDWNADEEILLLEAIATYGFGNWKEVADHVGSKTTTECIKHFNSAYMQSPCFPLPDLSHTIGKSKDELLAMSKDSAVKTEIPAFVRLSPKEELPVSAEIKHEASGKVNEIDPPLSALAGVKKKGNVPQAKDIIKLEAAKQQSDRSVGEKKLRLPGEKVPLVTELYGYNLKREEFEIEHDNDAEQLLADMEFKDSDTDAEREQKLQVLRIYSKRLDERKRRKEFVLERNLLYPDQYEMSLSAEERKIYKSCKVFARFQSKEEHKELIKKVIEEHQILRRIEDLQEARTAGCRTTSDANRFIEEKRKKEAEESMLLRLNHGAPGSIAGKTLKSPRGLPRNLHPFGSDSLPKVTPPRIYSGLDTWDVDGLLGADLLSETEKKMCNETRILPVHYLKMLDILTREIKKGQIKKKSDAYSFFKVEPSKVDRVYDMLVHKGIGDST
For B2, in assay [2], the binding result is recorded as “binds”.

Source of the values: publication doi:10.1101/2025.08.07.669221.
